Values quoted from earlier work as cited in US9872910B2, “Aqueous ophthalmic composition” (FUJIFILM CORPORATION, priority 2014, dated 2018).
Some results were stated once for a whole list of compounds, not compound by compound.

Conditions: in 1 g of 25° C. water at any pH within a neutral range of from 6.0 to 8.0

Solubility in water, ≤ 10 mg:
CC(=O)Nc1nnc(S(N)(=O)=O)s1 [acetazolamide]
CCN[C@H]1CN(CCCOC)S(=O)(=O)c2sc(S(N)(=O)=O)cc21 [brinzolamide]
CCN[C@H]1C[C@H](C)S(=O)(=O)c2sc(S(N)(=O)=O)cc21 [dorzolamide]
